Results on 1 molecule are retold here after PMC4227792 (Nucleic Acids Research, 2014).

Results are given in words; binding and its absence hold for the method and conditions named. Binding seen in cells or lysates may run through a third protein. Some entries that bind do so weakly or less than the wild type. Where a sequence is shown, tags or fusion partners need not be part of it.

The assay deals with T1, Strep-Csl4 exosome of Sulfolobus solfataricus, reconstituted (His6-Rrp41, His6-Rrp42 and Strep-tagged Csl4) (Sulfolobus solfataricus) (UniProt Q9UXC2+Q9UXC0+Q980J9).
T1 sequence 1: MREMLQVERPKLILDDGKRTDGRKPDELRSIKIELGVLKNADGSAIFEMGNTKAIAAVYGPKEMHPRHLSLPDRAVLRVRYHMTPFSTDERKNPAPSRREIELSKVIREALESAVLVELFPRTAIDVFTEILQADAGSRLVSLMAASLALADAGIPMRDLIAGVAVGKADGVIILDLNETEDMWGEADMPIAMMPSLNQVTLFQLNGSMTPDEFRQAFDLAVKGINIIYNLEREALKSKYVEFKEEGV
T1 sequence 2: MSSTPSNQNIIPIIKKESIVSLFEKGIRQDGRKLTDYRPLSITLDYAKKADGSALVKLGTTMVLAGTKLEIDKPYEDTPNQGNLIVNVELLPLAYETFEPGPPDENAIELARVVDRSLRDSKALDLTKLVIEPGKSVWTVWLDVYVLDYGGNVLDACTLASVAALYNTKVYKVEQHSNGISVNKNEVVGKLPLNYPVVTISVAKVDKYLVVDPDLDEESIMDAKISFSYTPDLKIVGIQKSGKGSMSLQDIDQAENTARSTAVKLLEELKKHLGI
T1 sequence 3: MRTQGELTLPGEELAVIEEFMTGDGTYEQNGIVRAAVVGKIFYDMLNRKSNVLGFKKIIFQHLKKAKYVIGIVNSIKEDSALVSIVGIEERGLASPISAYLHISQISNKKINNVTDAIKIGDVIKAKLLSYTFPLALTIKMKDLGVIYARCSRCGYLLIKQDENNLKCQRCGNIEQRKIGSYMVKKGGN
The experiment in a line: pull-down; reconstituted Strep-Csl4 exosome mixed with E. coli cell-free extract holding the DnaG variant; buffer P0 (10 mM Tris pH 8.0, 5 mM MgCl2, 0.5 mM EDTA, 200 mM NaCl, 5% glycerol, 0.05% Tween 20, 0.2 mM DTT), 2 h at room temperature; Strep-Tactin Sepharose, eluted with 5 mM D-desthiobiotin; SDS-PAGE with silver staining, western blot with DnaG-directed serum; only the target purified. A general note: Immunoblotting shows a protein as a band on a membrane.

B1: DnaG-K6AY7A (non-tagged NTD double mutant of DnaG) (protein, UniProt P95980 1-406)
chain: MSFQMAADIRLRFEVEGIVEKTDVIGAIFGQTENLFGDEFDLRELQDKGRLGRIIVEVKTKGGKSEGEIIIPSNLDRIETALIAAMVESVDKVGPYNSKFELIEIEDIRAEKLKKIIERAKGILSSWSKEKSLDIKEVINEISSAVKVGEITEYGPERLPAGPDVDKDPNLIIVEGRADVINLLRYGYKNVIAVEGATSRIPETLINLSKMKKTVIAFLDGDHGGDLILKELLSNNVKIDFVARAPIGREVEELTGKEIAKALSNMMPLTQYLKKVQEAEQAIAKNVIAKEEKPIQSETTQQVVQITLPQNILEEIKKLPGTLEGVLYDNNWNLIEKVQVRDIIPKLEAYEDNKVAYIIFDGVITQRLLDLASQKNIKMIIGARIGGINKRPQNVDILTFTDIISS
With B1, the binding entry is “binds”.
